{"source": "paper PMC12040169", "about": "(PLOS Biology, 2025)", "note": "Some of the results follow.", "data": [{"system": "T1, CTL2-GFP (C. trachomatis L2/434/Bu, GFP-expressing)", "T1 construct": "L2/434/Bu, GFP-expressing", "parameters": "species or system HeLa; Intracellular C. trachomatis growth in HeLa cells, bulk GFP fluorescence relative to DMSO", "conditions": "bulk GFP, single well; 28.5 h, 10 µM; inhibitor", "units": {"% of control remaining": "%"}, "values": [{"smiles": "O=C(c1ccc(F)cc1)N1C[C@@H](c2ccsc2)[C@@H]2CN(Cc3cccc(F)c3)CC[C@@H]21", "note": "[CBK285640]", "% of control remaining": 135.625}, {"smiles": "COc1cccc(C2(NC(=O)Cn3nc(C)cc3C)CCCC2)c1", "note": "[CBK283648]", "% of control remaining": 77.4747}, {"smiles": "CCOC(=O)C1CCCCN1Cc1ccc(O)c(OC)c1", "note": "(stereo not shown) [CBK261541]", "% of control remaining": 107.732}, {"smiles": "O=C(O)c1c[nH]nc1-c1ccc(Br)cc1", "note": "[CBK266368]", "% of control remaining": 182.685}, {"smiles": "CCn1ncc2c(C(=O)NC(C)COC)cc(-c3cccs3)nc21", "note": "(stereo not shown) [CBK304955]", "% of control remaining": 114.783}, {"smiles": "Oc1ccc(-c2nccnc2NCCc2ccncc2)cc1", "note": "[CBK037302]", "% of control remaining": 139.03}, {"smiles": "CCNC(=O)CN1CCN(C(=O)C(C)(C)c2cccc(C#N)c2)CC1", "note": "[CBK306141]", "% of control remaining": 115.386}, {"smiles": "Cn1c2ccccc2c2nnc(NCCCCO)nc21", "note": "[CBK023366]", "% of control remaining": 146.957}, {"smiles": "COc1ncc(-c2nccnc2NCC(C)O)c(OC)n1", "note": "(stereo not shown) [CBK036970]", "% of control remaining": 147.241}, {"smiles": "COCc1c(Br)c(C)nc(OCC(=O)O)c1C#N", "note": "[CBK266532]", "% of control remaining": 128.462}, {"smiles": "CC(=O)c1ccc(-c2nccnc2N[C@@H](CO)C(C)C)s1", "note": "[CBK037404]", "% of control remaining": 124.853}, {"smiles": "O=C(Nc1ccccc1O)c1cc(S(=O)(=O)N2CCCCCC2)ccc1Cl", "note": "[CBK264554]", "% of control remaining": 98.1527}, {"smiles": "C[C@]12CN(CC3CC=CCC3)C[C@H]1C(=O)Nc1ccccc1C(=O)N2", "note": "(stereo partly shown) [CBK284738]", "% of control remaining": 80.0603}, {"smiles": "C[S+]([O-])CCNC(=O)c1cc2c(Cl)cccc2[nH]1", "note": "(stereo not shown) [CBK283304]", "% of control remaining": 129.921}, {"smiles": "Brc1cn2ccnc2c(N2CCCC2)n1", "note": "[CBK085449]", "% of control remaining": 115.741}, {"smiles": "COc1cc(Br)c(-c2nnn[nH]2)cc1OC", "note": "[CBK270093]", "% of control remaining": 110.83}, {"smiles": "O=S(=O)(NCc1ccc2c(c1)OCO2)c1ccc2c(c1)oc1ccccc12", "note": "[CBK268308]", "% of control remaining": 121.924}, {"smiles": "COCCNc1nc2c(c(N3CCCC(CO)C3)n1)CCNCC2", "note": "(stereo not shown) [CBK307242]", "% of control remaining": 125.056}, {"smiles": "Cn1nc2c(c1O)CCCC2", "note": "[CBK089897]", "% of control remaining": 95.7011}, {"smiles": "CCOc1cc(OCC)nc(Oc2ccc(C(=O)OC)cc2)n1", "note": "[CBK107733]", "% of control remaining": 144.357}, {"smiles": "CCc1cc2c(=O)c(-c3cnn(-c4ccccc4)c3)c(C(F)(F)F)oc2c(CN2CCCCC2)c1O", "note": "[CBK264458]", "% of control remaining": 128.829}, {"smiles": "COc1cccc(N2CCN(C(C(=O)O)c3cn(C)c4cc(C(=O)O)ccc34)CC2)c1", "note": "(stereo not shown) [CBK286701]", "% of control remaining": 108.378}, {"smiles": "Cc1cc(=O)n2c(C(=O)Nc3ccc(C(=O)O)cc3)c(C(=O)Nc3cccc(C)c3C)sc2n1", "note": "[CBK297547]", "% of control remaining": 121.356}, {"smiles": "COCCNC(=O)c1ccc(-c2ccc3c(c2)OCO3)nc1N(C)C", "note": "[CBK106050]", "% of control remaining": 106.17}, {"smiles": "CCCCc1ccc(-c2cnc(N)c3ncccc23)cc1", "note": "[CBK067588]", "% of control remaining": 122.376}, {"smiles": "CN(C)c1ccc(CN(CCO)CCO)cc1", "note": "[CBK261921]", "% of control remaining": 100}, {"smiles": "CC(C)(C)C(=O)Nc1ccc(-c2ccc(NC(=O)C(C)(C)C)c(C(=O)O)c2)cc1C(=O)O", "note": "[CBK261392]", "% of control remaining": 110.27}, {"smiles": "CC(C)N1C[C@@H](C(=O)NC(C)(C)C)[C@@]2(Cc3ccccc3C(=O)N2)C1", "note": "[CBK285295]", "% of control remaining": 102.609}, {"smiles": "CCCCOC(=O)c1c(N)n(CCOC)c2nc3ccccc3nc12", "note": "[CBK264961]", "% of control remaining": 125.574}, {"smiles": "NC1CCN(C(=O)Cn2ccc3ccnc(-c4cccs4)c32)CC1", "note": "[CBK284750]", "% of control remaining": 131.081}, {"smiles": "Cc1ccc(NC(=O)CCc2cccnc2)c(C)n1", "note": "[CBK200386]", "% of control remaining": 96.0105}, {"smiles": "O=C(/C=C/c1cccc([N+](=O)[O-])c1)NC(=S)Nc1ccc(-c2nc3ccccc3[nH]2)cc1", "note": "[CBK264376]", "% of control remaining": 83.7792}, {"smiles": "CCN1CCN(Cc2c[nH]c3ccccc23)CC1", "note": "[CBK261540]", "% of control remaining": 113.955}, {"smiles": "CCc1nc2ccc(C(=O)N(C)CCN(C)C)cn2c1N(CC)C(=O)NCCc1ccccc1", "note": "[CBK147036]", "% of control remaining": 113.628}, {"smiles": "NC(=O)C1CCN(C(=O)c2cc3c(=O)n4ccccc4nc3s2)CC1", "note": "[CBK296938]", "% of control remaining": 157.676}, {"smiles": "O=C(Nc1ncn(CC(=O)N2CCCCCC2)n1)c1cccs1", "note": "[CBK304953]", "% of control remaining": 124.836}, {"smiles": "O=C1NC=CCC12CCCN(S(=O)(=O)c1ccc(F)cc1)C2", "note": "(stereo not shown) [CBK284797]", "% of control remaining": 131.621}, {"smiles": "O=C(Nc1cccnc1)C1CCN(S(=O)(=O)c2ccc(Oc3ccccc3)cc2)CC1", "note": "[CBK269621]", "% of control remaining": 120.341}, {"smiles": "COC(=O)c1ccc(-n2cc(-c3cccc(C(F)(F)F)c3)nn2)cc1", "note": "[CBK112936]", "% of control remaining": 116.057}, {"smiles": "Cc1cc(S(=O)(=O)Nc2cccc(Br)c2)c(C)cc1Cl", "note": "[CBK043652]", "% of control remaining": 117.234}, {"smiles": "CO[C@@H](C(=O)Nc1cnc(-c2ccc(F)cc2)c(-c2ccsc2)n1)c1ccccc1", "note": "[CBK036803]", "% of control remaining": 103.6}, {"smiles": "N#CCCCN1CCC2(CC1)CN(C(=O)CO)c1ccccc12", "note": "[CBK137007]", "% of control remaining": 55.9462}, {"smiles": "Cc1cc(C)n(C)c(=O)c1C(=O)NC(C)Cc1ccccn1", "note": "(stereo not shown) [CBK283063]", "% of control remaining": 125.962}, {"smiles": "Cc1nn(C(C)CC(=O)NC2CCCOC2)c(C)c1C", "note": "(stereo not shown) [CBK283133]", "% of control remaining": 97.0144}, {"smiles": "Cc1cc(C)n2nc(C(=O)NCCCn3ccnc3C(C)C)nc2n1", "note": "[CBK307635]", "% of control remaining": 145.691}, {"smiles": "O=C(CC1S/C(=N/N=C/c2ccccc2C(=O)O)NC1=O)Nc1ccccc1", "note": "(stereo not shown) [CBK264515]", "% of control remaining": 130.365}, {"smiles": "Cc1nc2cccnc2n1CCNC(=O)c1cccc(Cl)c1", "note": "[CBK283593]", "% of control remaining": 138.271}, {"smiles": "O=C(O)CSc1nnc(-c2ccc3c(c2)OCO3)n1-c1ccccc1", "note": "[CBK131690]", "% of control remaining": 89.4344}, {"smiles": "COc1ccccc1-c1ccc(CC2(C(=O)NCc3cccc(F)c3)CCOCC2)cc1", "note": "[CBK286521]", "% of control remaining": 83.1498}, {"smiles": "Cc1cc(NS(=O)(=O)c2ccc(NC(=O)/C=C/c3ccc(C)o3)cc2)nc(C)n1", "note": "[CBK265474]", "% of control remaining": 111.251}, {"smiles": "CC(=O)N1CCN(c2ccccc2NC(=O)Cc2ccccc2C(=O)O)CC1", "note": "[CBK286802]", "% of control remaining": 135.849}, {"smiles": "C/C(=N\\NC(=N)SC1CC(=O)N(c2ccc(C(=O)O)cc2)C1=O)c1cccs1", "note": "(stereo not shown) [CBK262471]", "% of control remaining": 90.1043}, {"smiles": "O=C1OCCN1S(=O)(=O)c1ccc(CN2CCCN(Cc3ccc(S(=O)(=O)N4CCOC4=O)cc3)CC2)cc1", "note": "[CBK024728]", "% of control remaining": 149.579}, {"smiles": "NC1CCC(NC(=O)c2cnc(-c3ccc(Cl)cc3)c(-c3ccco3)c2)CC1", "note": "(stereo not shown) [CBK037563]", "% of control remaining": 191.562}, {"smiles": "Cc1nn(C)cc1-c1cncn1CCn1nc(C)c(C)c1C", "note": "[CBK281785]", "% of control remaining": 123.191}, {"smiles": "COc1cccc(C(=O)Nc2nc(-c3ccc(S(=O)(=O)N4CCCC4)cc3)cs2)c1", "note": "[CBK096257]", "% of control remaining": 115.466}, {"smiles": "N/N=C(\\CCC(=O)O)c1ccccc1", "note": "[CBK261306]", "% of control remaining": 117.071}, {"smiles": "O=C(O)c1ccc(S(=O)(=O)c2ccc3c(c2)C(=O)N(c2ccc(Sc4ccc([N+](=O)[O-])cc4)cc2)C3=O)cc1", "note": "[CBK262869]", "% of control remaining": 86.3664}, {"smiles": "Cc1ccccc1-c1nc(S(=O)(=O)c2ccc(Cl)cc2)c(NCC2CCCO2)o1", "note": "(stereo not shown) [CBK267668]", "% of control remaining": 77.517}, {"smiles": "O=C(Nc1cccnc1)c1cc2cc(F)ccc2[nH]1", "note": "[CBK107272]", "% of control remaining": 167.104}, {"smiles": "CCCS(=O)(=O)n1ccn(-c2ccc(Cl)c(Cl)c2)c1=O", "note": "[CBK106667]", "% of control remaining": 105.833}, {"smiles": "COc1ccccc1CCNC(=O)N1CCC(Oc2cccnc2)CC1", "note": "[CBK307615]", "% of control remaining": 110.26}, {"smiles": "COc1ccc(CCNc2ncnc3c2cnn3-c2ccc(Cl)cc2)cc1OC", "note": "[CBK265804]", "% of control remaining": 99.8763}, {"smiles": "CCCC(=O)Nc1ccc(OCCOC(C)(C)C)c(C(C)=O)c1", "note": "[CBK305691]", "% of control remaining": 122.406}, {"smiles": "CCOC(=O)c1cccc(-c2cc3ccccc3o2)n1", "note": "[CBK149243]", "% of control remaining": 136.581}, {"smiles": "O=C(O)CCc1ccc(-c2ccc(F)cc2)n1CCc1ccccc1", "note": "[CBK265936]", "% of control remaining": 102.126}, {"smiles": "c1ccc(CSc2ccc3nnc(-c4ccncc4)n3n2)cc1", "note": "[CBK287625]", "% of control remaining": 141.489}, {"smiles": "COc1cccc(NC(=O)c2ccc(N(C)Cc3ccccc3)c([N+](=O)[O-])c2)c1", "note": "[CBK267827]", "% of control remaining": 78.6251}, {"smiles": "Sc1nnc(COc2ccc(Cl)cc2Cl)n1Cc1ccccc1", "note": "[CBK263138]", "% of control remaining": 98.2532}, {"smiles": "CC(C)NC(=O)CN1CCN(c2ccc(C#N)cc2Cl)CC1", "note": "[CBK305470]", "% of control remaining": 86.4446}, {"smiles": "Nc1ncc(-c2ccncc2)nc1-c1ccc(C=O)cc1", "note": "[CBK064102]", "% of control remaining": 119.308}, {"smiles": "Cc1ccc(C(=O)NCc2nc3ccccc3[nH]2)c(N2CCOCC2)n1", "note": "[CBK106200]", "% of control remaining": 117.555}, {"smiles": "COCCNC(=O)C1CCN(c2nc3c(-c4ccccc4F)csc3c(=O)[nH]2)CC1", "note": "[CBK215434]", "% of control remaining": 130.402}, {"smiles": "O=C(O)c1ccc(COc2ccc(/C=C3\\SC(=S)N(Cc4cccnc4)C3=O)cc2Cl)cc1", "note": "[CBK264672]", "% of control remaining": 100}, {"smiles": "CN1C(=O)C2(CC(=O)N(Cc3ccccc3)C2=O)c2cc(F)ccc21", "note": "(stereo not shown) [CBK075268]", "% of control remaining": 105.141}, {"smiles": "Cc1cc(C)c(S(=O)(=O)NC(C)C)c(C)c1-n1cnnn1", "note": "[CBK270197]", "% of control remaining": 105.641}, {"smiles": "Cc1cc2nc(/C(C#N)=C/c3ccncc3)[nH]c2cc1C", "note": "[CBK268745]", "% of control remaining": 166.273}, {"smiles": "Cc1nc(-c2ccccc2)sc1CNC(=O)Cc1ccccc1F", "note": "[CBK092372]", "% of control remaining": 82.085}, {"smiles": "CCc1cc(CNC(=O)c2ccc(C)c(-n3nc(C)cc3C)c2)on1", "note": "[CBK281557]", "% of control remaining": 113.616}]}]}
